Like-named read-outs stand apart in the source and are kept apart here. These are yes or no findings as the source states them, for the method shown. Binding seen in cells or lysates may run through a third protein. Some binding calls cover weakened binding; strength is not graded here. Where a sequence is shown, tags or fusion partners need not be part of it.
B1: CAPNS1 (calpain regulatory subunit) (protein, UniProt P04632 1-268)
chain: MFLVNSFLKGGGGGGGGGGGLGGGLGNVLGGLISGAGGGGGGGGGGGGGGGGGGGGTAMRILGGVISAISEAAAQYNPEPPPPRTHYSNIEANESEEVRQFRRLFAQLAGDDMEVSATELMNILNKVVTRHPDLKTDGFGIDTCRSMVAVMDSDTTGKLGFEEFKYLWNNIKRWQAIYKQFDTDRSGTICSSELPGAFEAAGFHLNEHLYNMIIRRYSDESGNMDFDNFISCLVRLDAMFRAFKSLDKDGTGQIQVNIQEWLQLTMYS
B2: endogenous SMC6 (protein, UniProt Q96SB8 1-1091)
chain: MAKRKEENFSSPKNAKRPRQEELEDFDKDGDEDECKGTTLTAAEVGIIESIHLKNFMCHSMLGPFKFGSNVNFVVGNNGSGKSAVLTALIVGLGGRAVATNRGSSLKGFVKDGQNSADISITLRNRGDDAFKASVYGNSILIQQHISIDGSRSYKLKSATGSVVSTRKEELIAILDHFNIQVDNPVSVLTQEMSKQFLQSKNEGDKYKFFMKATQLEQMKEDYSYIMETKERTKEQIHQGEERLTELKRQCVEKEERFQSIAGLSTMKTNLESLKHEMAWAVVNEIEKQLNAIRDNIKIGEDRAARLDRKMEEQQVRLNEAEQKYKDIQDKLEKISEETNARAPECMALKADVVAKKRAYNEAEVLYNRSLNEYKALKKDDEQLCKRIEELKKSTDQSLEPERLERQKKISWLKERVKAFQNQENSVNQEIEQFQQAIEKDKEEHGKIKREELDVKHALSYNQRQLKELKDSKTDRLKRFGPNVPALLEAIDDAYRQGHFTYKPVGPLGACIHLRDPELALAIESCLKGLLQAYCCHNHADERVLQALMKRFYLPGTSRPPIIVSEFRNEIYDVRHRAAYHPDFPTVLTALEIDNAVVANSLIDMRGIETVLLIKNNSVARAVMQSQKPPKNCREAFTADGDQVFAGRYYSSENTRPKFLSRDVDSEISDLENEVENKTAQILNLQQHLSALEKDIKHNEELLKRCQLHYKELKMKIRKNISEIRELENIEEHQSVDIATLEDEAQENKSKMKMVEEHMEQQKENMEHLKSLKIEAENKYDAIKFKINQLSELADPLKDELNLADSEVDNQKRGKRHYEEKQKEHLDTLNKKKRELDMKEKELEEKMSQARQICPERIEVEKSASILDKEINRLRQKIQAEHASHGDREEIMRQYQEARETYLDLDSKVRTLKKFIKLLGEIMEHRFKTYQQFRRCLTLRCKLYFDNLLSQRAYCGKMNFDHKNETLSISVQPGEGNKAAFNDMRALSGGERSFSTVCFILSLWSIAESPFRCLDEFDVYMDMVNRRIAMDLILKMADSQRFRQFILLTPQSMSSLPSSKLIRILRMSDPERGQTTLPFRPVTQEEDDDQR

Protein sequences, listed by entry. Tags and fused reporters are not part of them.
UniProt Q14999: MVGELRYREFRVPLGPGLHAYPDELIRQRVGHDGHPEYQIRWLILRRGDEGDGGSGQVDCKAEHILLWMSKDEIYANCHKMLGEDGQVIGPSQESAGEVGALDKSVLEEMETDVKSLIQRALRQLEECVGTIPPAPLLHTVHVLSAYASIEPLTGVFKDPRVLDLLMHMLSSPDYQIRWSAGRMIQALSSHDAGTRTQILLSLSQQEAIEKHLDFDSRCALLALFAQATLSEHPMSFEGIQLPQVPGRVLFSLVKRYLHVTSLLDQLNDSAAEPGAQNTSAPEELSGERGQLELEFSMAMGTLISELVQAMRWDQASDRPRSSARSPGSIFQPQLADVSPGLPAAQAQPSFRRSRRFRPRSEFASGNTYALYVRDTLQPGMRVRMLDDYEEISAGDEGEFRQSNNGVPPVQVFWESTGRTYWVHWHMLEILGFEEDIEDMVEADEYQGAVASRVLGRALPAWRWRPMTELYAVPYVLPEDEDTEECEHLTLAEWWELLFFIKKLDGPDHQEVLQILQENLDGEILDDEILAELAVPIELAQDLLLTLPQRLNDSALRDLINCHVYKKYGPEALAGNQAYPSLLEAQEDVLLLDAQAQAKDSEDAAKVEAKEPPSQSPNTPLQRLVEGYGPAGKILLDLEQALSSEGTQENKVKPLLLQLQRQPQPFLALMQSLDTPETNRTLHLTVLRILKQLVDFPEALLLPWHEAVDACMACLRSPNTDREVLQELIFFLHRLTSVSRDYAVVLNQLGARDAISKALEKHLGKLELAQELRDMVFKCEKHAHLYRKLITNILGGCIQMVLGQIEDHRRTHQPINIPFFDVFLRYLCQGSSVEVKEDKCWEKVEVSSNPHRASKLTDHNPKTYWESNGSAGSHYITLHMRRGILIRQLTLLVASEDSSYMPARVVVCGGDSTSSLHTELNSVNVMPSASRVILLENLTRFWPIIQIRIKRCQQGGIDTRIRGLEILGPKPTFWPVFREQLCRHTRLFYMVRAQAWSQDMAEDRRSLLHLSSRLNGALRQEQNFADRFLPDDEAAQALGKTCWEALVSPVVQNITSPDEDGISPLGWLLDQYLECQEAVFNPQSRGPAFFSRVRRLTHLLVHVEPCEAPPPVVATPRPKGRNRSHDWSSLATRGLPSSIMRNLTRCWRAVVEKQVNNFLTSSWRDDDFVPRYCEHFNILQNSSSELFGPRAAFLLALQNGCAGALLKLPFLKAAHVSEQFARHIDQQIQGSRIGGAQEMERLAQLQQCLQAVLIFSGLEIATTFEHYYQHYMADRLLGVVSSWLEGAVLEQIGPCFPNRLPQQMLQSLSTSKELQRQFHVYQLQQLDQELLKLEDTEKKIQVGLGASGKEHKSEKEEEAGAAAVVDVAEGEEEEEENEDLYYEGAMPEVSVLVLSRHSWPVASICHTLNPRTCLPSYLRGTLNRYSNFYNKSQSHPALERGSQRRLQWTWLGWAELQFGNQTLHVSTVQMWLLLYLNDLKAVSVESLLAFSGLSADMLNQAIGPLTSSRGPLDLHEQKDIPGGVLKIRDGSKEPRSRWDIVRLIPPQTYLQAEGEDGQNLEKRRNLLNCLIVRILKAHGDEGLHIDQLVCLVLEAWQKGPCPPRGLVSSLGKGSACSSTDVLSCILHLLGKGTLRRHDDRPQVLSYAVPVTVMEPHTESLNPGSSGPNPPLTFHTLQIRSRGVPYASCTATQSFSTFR
UniProt Q16531: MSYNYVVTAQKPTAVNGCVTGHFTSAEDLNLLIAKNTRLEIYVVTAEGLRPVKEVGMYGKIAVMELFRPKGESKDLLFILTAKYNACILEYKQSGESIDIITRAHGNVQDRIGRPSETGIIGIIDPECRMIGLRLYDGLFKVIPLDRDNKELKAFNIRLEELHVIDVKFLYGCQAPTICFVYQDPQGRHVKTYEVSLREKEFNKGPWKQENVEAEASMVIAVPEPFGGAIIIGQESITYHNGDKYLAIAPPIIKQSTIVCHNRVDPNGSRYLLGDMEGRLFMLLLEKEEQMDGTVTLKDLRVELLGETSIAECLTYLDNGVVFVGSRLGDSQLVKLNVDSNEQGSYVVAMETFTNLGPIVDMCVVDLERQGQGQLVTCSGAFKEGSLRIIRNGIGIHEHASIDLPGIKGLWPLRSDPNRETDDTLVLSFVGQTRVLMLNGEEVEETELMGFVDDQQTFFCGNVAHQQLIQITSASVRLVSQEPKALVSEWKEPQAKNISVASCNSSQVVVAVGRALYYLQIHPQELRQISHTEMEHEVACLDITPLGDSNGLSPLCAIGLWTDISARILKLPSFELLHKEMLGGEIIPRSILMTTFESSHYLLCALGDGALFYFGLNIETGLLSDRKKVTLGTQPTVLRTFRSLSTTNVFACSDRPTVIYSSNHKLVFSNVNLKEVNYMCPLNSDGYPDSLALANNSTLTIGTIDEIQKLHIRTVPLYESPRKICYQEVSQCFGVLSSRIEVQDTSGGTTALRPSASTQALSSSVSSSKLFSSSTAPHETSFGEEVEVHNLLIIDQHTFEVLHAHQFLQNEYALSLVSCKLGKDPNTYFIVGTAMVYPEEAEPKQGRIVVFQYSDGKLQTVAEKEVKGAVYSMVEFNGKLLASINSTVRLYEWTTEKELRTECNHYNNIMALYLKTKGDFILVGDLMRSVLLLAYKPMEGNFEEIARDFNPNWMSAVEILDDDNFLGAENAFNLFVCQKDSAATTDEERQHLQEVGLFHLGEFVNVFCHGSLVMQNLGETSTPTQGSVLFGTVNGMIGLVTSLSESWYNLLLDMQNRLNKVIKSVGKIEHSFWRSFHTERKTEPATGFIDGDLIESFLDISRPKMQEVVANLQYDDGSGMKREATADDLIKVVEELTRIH

Key:
Experiment in all cases: co-IP; anti-HA magnetic beads on lysates of P3HR-1 ZHT/RHT cells with dox-induced HA-tagged bait (BNRF1, BNRF1 mutants or SMC6); bortezomib added; in some panels cells induced for lytic replication; lysis buffer 1% NP40, 150 mM Tris, 300 mM NaCl, 4°C overnight; immunoblot
[1] = target: T1, HA-epitope tagged BNRF1 (EBV major tegument protein), wild type (Epstein-Barr virus) (UniProt P03179)
T1 sequence: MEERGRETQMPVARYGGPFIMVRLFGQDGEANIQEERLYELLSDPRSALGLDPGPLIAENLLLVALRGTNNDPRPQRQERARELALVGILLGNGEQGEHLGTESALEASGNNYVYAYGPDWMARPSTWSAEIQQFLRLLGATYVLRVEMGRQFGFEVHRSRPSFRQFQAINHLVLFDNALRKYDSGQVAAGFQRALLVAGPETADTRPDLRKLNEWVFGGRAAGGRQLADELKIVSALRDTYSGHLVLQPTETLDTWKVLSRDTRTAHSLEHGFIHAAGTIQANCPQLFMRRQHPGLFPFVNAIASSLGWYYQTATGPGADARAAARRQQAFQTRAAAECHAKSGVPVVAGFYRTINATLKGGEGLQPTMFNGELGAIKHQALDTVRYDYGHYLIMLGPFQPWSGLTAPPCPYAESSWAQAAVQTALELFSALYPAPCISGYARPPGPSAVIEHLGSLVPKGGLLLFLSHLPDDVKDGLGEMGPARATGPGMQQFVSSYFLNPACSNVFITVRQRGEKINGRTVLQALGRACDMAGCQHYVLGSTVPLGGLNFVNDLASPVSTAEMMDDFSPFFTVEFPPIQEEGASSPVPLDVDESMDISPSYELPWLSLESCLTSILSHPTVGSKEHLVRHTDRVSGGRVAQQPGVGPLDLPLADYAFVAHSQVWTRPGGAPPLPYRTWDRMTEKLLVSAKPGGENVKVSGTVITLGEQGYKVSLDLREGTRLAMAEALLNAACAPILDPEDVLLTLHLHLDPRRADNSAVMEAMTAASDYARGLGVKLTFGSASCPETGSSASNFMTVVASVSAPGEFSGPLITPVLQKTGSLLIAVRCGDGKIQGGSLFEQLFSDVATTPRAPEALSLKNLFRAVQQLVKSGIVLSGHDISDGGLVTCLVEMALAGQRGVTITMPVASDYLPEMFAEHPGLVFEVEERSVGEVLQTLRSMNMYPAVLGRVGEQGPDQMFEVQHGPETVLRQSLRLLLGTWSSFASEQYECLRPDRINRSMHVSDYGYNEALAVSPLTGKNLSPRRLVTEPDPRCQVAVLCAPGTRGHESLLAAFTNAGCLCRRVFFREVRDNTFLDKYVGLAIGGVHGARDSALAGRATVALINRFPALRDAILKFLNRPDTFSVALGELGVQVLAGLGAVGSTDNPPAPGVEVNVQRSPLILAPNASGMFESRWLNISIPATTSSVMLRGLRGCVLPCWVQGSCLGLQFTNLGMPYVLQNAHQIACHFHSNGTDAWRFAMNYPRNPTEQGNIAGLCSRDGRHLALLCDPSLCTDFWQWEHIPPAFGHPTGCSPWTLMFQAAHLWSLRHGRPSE

[2] = target: T1, HA-epitope tagged BNRF1 (EBV major tegument protein), wild type (Epstein-Barr virus); remark: listed apart in the source
HA-tagged SMC6 (human) = target: T2, HA-tagged SMC6 (human) (UniProt Q96SB8)
T2 sequence: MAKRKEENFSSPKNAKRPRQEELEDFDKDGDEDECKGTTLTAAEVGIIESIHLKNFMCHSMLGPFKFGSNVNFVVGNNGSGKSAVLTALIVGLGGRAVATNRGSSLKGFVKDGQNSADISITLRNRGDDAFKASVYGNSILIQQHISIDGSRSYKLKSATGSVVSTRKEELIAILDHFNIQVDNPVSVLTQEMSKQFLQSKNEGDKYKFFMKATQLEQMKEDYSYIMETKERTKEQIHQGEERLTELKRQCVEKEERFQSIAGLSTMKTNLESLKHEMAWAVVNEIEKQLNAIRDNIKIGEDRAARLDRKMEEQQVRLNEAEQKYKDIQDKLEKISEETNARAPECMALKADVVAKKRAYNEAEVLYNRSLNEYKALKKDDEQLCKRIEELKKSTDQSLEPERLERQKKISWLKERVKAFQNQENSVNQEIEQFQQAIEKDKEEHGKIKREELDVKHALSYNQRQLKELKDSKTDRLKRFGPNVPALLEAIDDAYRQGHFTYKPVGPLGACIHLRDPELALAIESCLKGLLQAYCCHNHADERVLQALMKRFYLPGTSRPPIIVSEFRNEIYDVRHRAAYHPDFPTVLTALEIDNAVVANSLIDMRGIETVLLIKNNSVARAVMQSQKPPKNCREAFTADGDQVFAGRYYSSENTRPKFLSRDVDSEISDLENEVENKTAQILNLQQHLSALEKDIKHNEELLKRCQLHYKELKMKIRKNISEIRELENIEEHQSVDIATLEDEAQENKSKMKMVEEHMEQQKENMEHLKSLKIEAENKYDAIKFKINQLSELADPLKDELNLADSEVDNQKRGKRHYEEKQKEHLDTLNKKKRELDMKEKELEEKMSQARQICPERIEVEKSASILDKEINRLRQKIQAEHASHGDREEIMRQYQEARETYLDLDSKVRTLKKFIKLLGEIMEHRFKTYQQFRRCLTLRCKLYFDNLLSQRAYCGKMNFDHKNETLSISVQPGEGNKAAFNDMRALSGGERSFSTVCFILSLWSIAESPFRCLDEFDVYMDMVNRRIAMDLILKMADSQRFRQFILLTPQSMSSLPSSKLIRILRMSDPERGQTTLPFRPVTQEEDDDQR

Molecule	binding [1]	binding [2]	binding (HA-tagged SMC6 (human))
Cullin-7 (from UniProt Q14999 1-1698)	binds	–	–
DDB1 (from UniProt Q16531 1-1140)	no binding	–	–
B1	–	binds	binds
B2	–	binds	–

From paper PMC8981113
